{"source": "PubChem BioAssay AID1508597 | Cure First – 2020", "aim": "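Knock-downs altering ovarian cancer cell survival with or without PARP inhibitor rucaparib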 (primary screen)", "cell system": "human ovarian carcinoma lines grown from tumours: OCI-P5x (papillary serous) and OCI-C5x (clear cell)", "reagents": "siRNA pool against human genes, 1.25 pmol siRNA per well", "timing": "72 h or 96 h, depending on the cell culture", "challenge": "rucaparib 20 µM (about IC30) or vehicle, present until read-out", "rucaparib or vehicle": "Rucaparib", "cell line": "OCI-P5x (serous)", "measured": "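Luminescent ATP-based viability assay read 72 or 96 h after transfection, depending on culture, given as normalised percent viability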", "scale": "viability, normalised: higher = more viable cells remaining", "hit rule": "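a well counts as a hit if its normalised viability is under 80 percent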", "meaning of the calls": "active = viability under 80%; inactive = viability 80% or more", "note": "Shown is an unselected part of the about 2,100 reagents, under one of the conditions tested. 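Calls flag viability under 80% in either arm, not effects specific to rucaparib; the reference for percent is not stated.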 Not stated in the record: the 100% reference."}
The first 4 entries as a preview:
{"gene": "STK39 (serine/threonine kinase 39)", "technical replicate": "1", "viability, normalised (%)": 85.9, "Call": "inactive"}
{"gene": "STK39 (serine/threonine kinase 39)", "technical replicate": "2", "viability, normalised (%)": 97.5, "Call": "inactive"}
{"gene": "STK39 (serine/threonine kinase 39)", "technical replicate": "3", "viability, normalised (%)": 103, "Call": "inactive"}
{"gene": "HIPK3 (homeodomain interacting protein kinase 3)", "technical replicate": "1", "viability, normalised (%)": 94.5, "Call": "inactive"}

Main list, repeating the preview:
{"gene": "STK39 (serine/threonine kinase 39)", "technical replicate": "1", "viability, normalised (%)": 85.9, "Call": "inactive"}
{"gene": "STK39 (serine/threonine kinase 39)", "technical replicate": "2", "viability, normalised (%)": 97.5, "Call": "inactive"}
{"gene": "STK39 (serine/threonine kinase 39)", "technical replicate": "3", "viability, normalised (%)": 103, "Call": "inactive"}
{"gene": "HIPK3 (homeodomain interacting protein kinase 3)", "technical replicate": "1", "viability, normalised (%)": 94.5, "Call": "inactive"}
{"gene": "HIPK3 (homeodomain interacting protein kinase 3)", "technical replicate": "2", "viability, normalised (%)": 85.7, "Call": "inactive"}
{"gene": "HIPK3 (homeodomain interacting protein kinase 3)", "technical replicate": "3", "viability, normalised (%)": 86.8, "Call": "inactive"}
{"gene": "CDK6 (cyclin dependent kinase 6)", "technical replicate": "1", "viability, normalised (%)": 69.4, "Call": "active"}
{"gene": "CDK6 (cyclin dependent kinase 6)", "technical replicate": "2", "viability, normalised (%)": 51.5, "Call": "active"}
{"gene": "CDK6 (cyclin dependent kinase 6)", "technical replicate": "3", "viability, normalised (%)": 77.6, "Call": "active"}
{"gene": "MYLK3 (myosin light chain kinase 3)", "technical replicate": "1", "viability, normalised (%)": 61.2, "Call": "active"}
{"gene": "MYLK3 (myosin light chain kinase 3)", "technical replicate": "2", "viability, normalised (%)": 67.7, "Call": "active"}
{"gene": "MYLK3 (myosin light chain kinase 3)", "technical replicate": "3", "viability, normalised (%)": 66, "Call": "active"}
{"gene": "HDGFL3 (HDGF like 3)", "technical replicate": "1", "viability, normalised (%)": 47.8, "Call": "active"}
{"gene": "HDGFL3 (HDGF like 3)", "technical replicate": "2", "viability, normalised (%)": 58.7, "Call": "active"}
{"gene": "HDGFL3 (HDGF like 3)", "technical replicate": "3", "viability, normalised (%)": 60.7, "Call": "active"}
{"gene": "EIF4A1 (eukaryotic translation initiation factor 4A1)", "technical replicate": "1", "viability, normalised (%)": 67.8, "Call": "active"}
{"gene": "EIF4A1 (eukaryotic translation initiation factor 4A1)", "technical replicate": "2", "viability, normalised (%)": 53.1, "Call": "active"}
{"gene": "EIF4A1 (eukaryotic translation initiation factor 4A1)", "technical replicate": "3", "viability, normalised (%)": 67.9, "Call": "active"}
{"gene": "PDGFRB (platelet derived growth factor receptor beta)", "technical replicate": "1", "viability, normalised (%)": 88.1, "Call": "inactive"}
{"gene": "PDGFRB (platelet derived growth factor receptor beta)", "technical replicate": "2", "viability, normalised (%)": 94.3, "Call": "inactive"}
{"gene": "PDGFRB (platelet derived growth factor receptor beta)", "technical replicate": "3", "viability, normalised (%)": 80.3, "Call": "inactive"}
{"gene": "PDE6H (phosphodiesterase 6H)", "technical replicate": "1", "viability, normalised (%)": 73, "Call": "active"}
{"gene": "PDE6H (phosphodiesterase 6H)", "technical replicate": "2", "viability, normalised (%)": 85.4, "Call": "inactive"}
{"gene": "PDE6H (phosphodiesterase 6H)", "technical replicate": "3", "viability, normalised (%)": 67.6, "Call": "active"}
{"gene": "BANP (BTG3 associated nuclear protein)", "technical replicate": "1", "viability, normalised (%)": 77.1, "Call": "active"}
{"gene": "BANP (BTG3 associated nuclear protein)", "technical replicate": "2", "viability, normalised (%)": 63.6, "Call": "active"}
{"gene": "BANP (BTG3 associated nuclear protein)", "technical replicate": "3", "viability, normalised (%)": 90.3, "Call": "inactive"}
{"gene": "PHF5A (PHD finger protein 5A)", "technical replicate": "1", "viability, normalised (%)": 38.2, "Call": "active"}
{"gene": "PHF5A (PHD finger protein 5A)", "technical replicate": "2", "viability, normalised (%)": 38.7, "Call": "active"}
{"gene": "PHF5A (PHD finger protein 5A)", "technical replicate": "3", "viability, normalised (%)": 42.5, "Call": "active"}
{"gene": "PRMT7 (protein arginine methyltransferase 7)", "technical replicate": "1", "viability, normalised (%)": 50.1, "Call": "active"}
{"gene": "PRMT7 (protein arginine methyltransferase 7)", "technical replicate": "2", "viability, normalised (%)": 46.8, "Call": "active"}
{"gene": "PRMT7 (protein arginine methyltransferase 7)", "technical replicate": "3", "viability, normalised (%)": 42.6, "Call": "active"}
